The values that follow come from article PMC5231280.

These are yes or no findings as the source states them, for the method shown. A result given as binding can be weak or reduced; the word gives no strength.

What all share (experiment): two-hybrid; GAL4-based, pGBKT7 and pGADT7-Rec fusions co-transformed into yeast AH109; growth on SD -Leu -Trp -His -Ade with X-gal / X-alpha-GAL
In assay [1] the target is TeAP3-2 protein (Tagetes erecta).
The target in assay [2] is TeTM6-1 protein (Tagetes erecta).
Assay [3] deals with TeTM6-2 protein (Tagetes erecta).
Assay [4] has as its target TeAP3-1 protein (Tagetes erecta).

Turning to “TeAP3-1 protein (from UniProt A0A1B2YKU0)”, the binding entry in assay [1], in assay [2] and in assay [3] was “no binding” throughout.
On to “TeAP3-2 protein (from UniProt A0A1B2YKT8)”, for which the binding entry in assay [2] and in assay [3] was “no binding” in each case.
In the case of TePI protein (from UniProt A0A1B2YKT1), the binding entry in assay [4], in assay [1], in assay [2] and in assay [3] was “binds” throughout.
For “TeTM6-1 protein (from UniProt A0A1B2YKT5)”, the binding entry in assay [3] is on record as “no binding”.
